Data as given in US20240209109A1.
These are yes or no findings as the source states them, for the method shown. Some entries that bind do so weakly or less than the wild type.

Protein sequences, listed by entry. Tags and fused reporters are not part of them. Lines headed by an entry give the natural chain unless they say otherwise; changes in a name come on top. Chains listed by the source or under a name are the forms on record and can include a tag or linker.
cynomolgus CD40-His protein (G7PG38, form named): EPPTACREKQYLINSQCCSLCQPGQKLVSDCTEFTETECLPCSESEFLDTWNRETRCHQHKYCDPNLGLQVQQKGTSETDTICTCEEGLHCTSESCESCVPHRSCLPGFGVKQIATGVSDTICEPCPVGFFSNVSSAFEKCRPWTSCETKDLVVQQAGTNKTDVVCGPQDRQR

B1: 2p931 chimeric monospecific antibody (antibody, V domains shown)
VH: AVQLVESGGGLVQPGGSLRLSCAASGFSFRNYMMNWVRQAPGKGLECLSSITSAGDITSYTESVKGRFTISRDNAKNTLYLQMNSLKPEDTAVYYCAQGGCGNYYRESWGQGTQVTVSS
B2: 2p957 chimeric monospecific antibody (antibody, V domains shown)
VH: PVQLVESGGGLVQPGGSLRLSCAASGFSFRNYIMSWVRQAPGKGLEWLSSITNSGGITSYTESVKGRFTISRDNAKNTLYLQMNSLKPEDTAVYYCAQGGSDNYYRGSWGQGTQVTVSS
B3: 2p415 chimeric monospecific antibody (antibody, V domains shown)
VH: QLHFVESGGGLVQPGGSLRLSCAASGFTLDHYAMGWFRQAPGKEREGVSCISGGGSTRYADSAKGRFTISRDNAKNTVYLQMNSLTPEDTAVYYCAAARLLSRNCVPRDSGSWGQGTQVTVSS
B4: 2p551 chimeric monospecific antibody (antibody, V domains shown)
VH: QLHFVESGGGLVQPGGSLRLSCAASGFTLDYYAIGWFRQAPGKEREGVSCISGGGSTRYADSVKGRFTISRDNAKNTVYLQMNSLTPEDTAVYYCAAARLLSTNCVPRDSGSWGQGTQVTVSS
B5: 2p442 chimeric monospecific antibody (antibody, V domains shown)
VH: QVQLVESGGGLVQPGGSLRLSCVASGFTLDYFAIGWFRQAPGKEREGVSCISGGGSTRYADSVKGRFTISRDNAKNTVYLQMNSLTPEDTAVYYCAAARLLSRNCVPRDSGSWGQGTQVTVSS
B6: 2p80 chimeric monospecific antibody (antibody, V domains shown)
VH: QLQLVESGGGLVQAGGSLRLSCAASGRIFSSYAMSWFRQAPGKEREFVATIGWIGENTYYADSVKGRFTISRDNAKNTLYLQMNSLKPEDTAVYYCAAGLPANRYYDYWGQGTQVTVSS
B7: 42p155 chimeric monospecific antibody (antibody, V domains shown)
VH: PSQLVESGGGLVQPGGSLRLSCAASGFAFRSYTMSWVRQAPGKGLEWVSTITHNGAITTYAESAQGRFTISRDNAKNTLYLQMNSLKPEDTAVYYCAQGGGSNYYRESWGQGTQVTVSS
B8: 2p1294 chimeric monospecific antibody (antibody, V domains shown)
VH: QVQLVESGGGLVQPGGSLRLSCAASGFSFRRYTMSWVRQAPGKGLEWVSAISDNGAITTYTESAQGRFTISRDNAKNTLYLQMNSLKPEDTAVYYCAQGGGSNYYRESWGQGTQVTVSS
B9: 3p78 chimeric monospecific antibody (antibody, V domains shown)
VH: PVQLVESGGGLVQPGGSLRLSCAASGFTFRNYAMSWVRQAPGKGLEWVSTITHNGAITTYAESAQGRFTISRDNAKNTLYLQMNSLKPEDTAVYYCAQGGGSNYYRESWGQGTQVTVSS
B10: 2p834 chimeric monospecific antibody (antibody, V domains shown)
VH: QSQLVESGGGLVQPGGSLRLSCAASGFAFRRYTMSWVRQAPGKGLEWVSTITHNGSITTYAESAQGRFTISRDNAKNTLYLQMNSLKPEDTAVYYCAQGGGSNYYRESWGQGTQVTVSS
B11: 42p655 chimeric monospecific antibody (antibody, V domains shown)
VH: AVQLVESGGGLVQPGGSLRLSCAASGFAFRRYTMSWVRQAPGKGLEWVSSITDNGSITTYAESAQGRFTISRDNAKNTLYLQMNSLKPEDTAVYHCAQGGGSNYYRESWGQGTQVTVSS
B12: 2p1130 chimeric monospecific antibody (antibody, V domains shown)
VH: EVQVVESGGGLVQPGGSLRLTCAASGFSVDDYGIGWFRQAPGREREGVACITPNGLMMNFANTVGSVAGRFSASRDSGENTVSLQMSSLKPEDTAIYFCAHSRDDSCRGSLSDYDDWGQGTQVTVSS
B13: 42p495 chimeric monospecific antibody (antibody, V domains shown)
VH: PVQLVESGGNLVQPGGSLRLSCVAPGFTSRNSAMSWVRQAPGKGLEWVSTIYSGKSNTDYADSVKGRFTISTDNAKNTLYLHMNKLKSEDTAVYYCAKGAASDWYVPRDYWGQGTQVTVSS

These binders were tested against cynomolgus CD40-His protein (cynomolgus) (UniProt G7PG38) (assay: ELISA, coated cynomolgus CD40-His).

binding, binds:
B1
B2
B3
B4
B5
B6
B7
B8
B9
B10
B11
B12
B13
